We go through two molecules from PMC10837126.

Sequences of proteins named here, by UniProt entry; tags and fusion partners are left off. Residues count along the entry.
UniProt P97793, residues 19-1621: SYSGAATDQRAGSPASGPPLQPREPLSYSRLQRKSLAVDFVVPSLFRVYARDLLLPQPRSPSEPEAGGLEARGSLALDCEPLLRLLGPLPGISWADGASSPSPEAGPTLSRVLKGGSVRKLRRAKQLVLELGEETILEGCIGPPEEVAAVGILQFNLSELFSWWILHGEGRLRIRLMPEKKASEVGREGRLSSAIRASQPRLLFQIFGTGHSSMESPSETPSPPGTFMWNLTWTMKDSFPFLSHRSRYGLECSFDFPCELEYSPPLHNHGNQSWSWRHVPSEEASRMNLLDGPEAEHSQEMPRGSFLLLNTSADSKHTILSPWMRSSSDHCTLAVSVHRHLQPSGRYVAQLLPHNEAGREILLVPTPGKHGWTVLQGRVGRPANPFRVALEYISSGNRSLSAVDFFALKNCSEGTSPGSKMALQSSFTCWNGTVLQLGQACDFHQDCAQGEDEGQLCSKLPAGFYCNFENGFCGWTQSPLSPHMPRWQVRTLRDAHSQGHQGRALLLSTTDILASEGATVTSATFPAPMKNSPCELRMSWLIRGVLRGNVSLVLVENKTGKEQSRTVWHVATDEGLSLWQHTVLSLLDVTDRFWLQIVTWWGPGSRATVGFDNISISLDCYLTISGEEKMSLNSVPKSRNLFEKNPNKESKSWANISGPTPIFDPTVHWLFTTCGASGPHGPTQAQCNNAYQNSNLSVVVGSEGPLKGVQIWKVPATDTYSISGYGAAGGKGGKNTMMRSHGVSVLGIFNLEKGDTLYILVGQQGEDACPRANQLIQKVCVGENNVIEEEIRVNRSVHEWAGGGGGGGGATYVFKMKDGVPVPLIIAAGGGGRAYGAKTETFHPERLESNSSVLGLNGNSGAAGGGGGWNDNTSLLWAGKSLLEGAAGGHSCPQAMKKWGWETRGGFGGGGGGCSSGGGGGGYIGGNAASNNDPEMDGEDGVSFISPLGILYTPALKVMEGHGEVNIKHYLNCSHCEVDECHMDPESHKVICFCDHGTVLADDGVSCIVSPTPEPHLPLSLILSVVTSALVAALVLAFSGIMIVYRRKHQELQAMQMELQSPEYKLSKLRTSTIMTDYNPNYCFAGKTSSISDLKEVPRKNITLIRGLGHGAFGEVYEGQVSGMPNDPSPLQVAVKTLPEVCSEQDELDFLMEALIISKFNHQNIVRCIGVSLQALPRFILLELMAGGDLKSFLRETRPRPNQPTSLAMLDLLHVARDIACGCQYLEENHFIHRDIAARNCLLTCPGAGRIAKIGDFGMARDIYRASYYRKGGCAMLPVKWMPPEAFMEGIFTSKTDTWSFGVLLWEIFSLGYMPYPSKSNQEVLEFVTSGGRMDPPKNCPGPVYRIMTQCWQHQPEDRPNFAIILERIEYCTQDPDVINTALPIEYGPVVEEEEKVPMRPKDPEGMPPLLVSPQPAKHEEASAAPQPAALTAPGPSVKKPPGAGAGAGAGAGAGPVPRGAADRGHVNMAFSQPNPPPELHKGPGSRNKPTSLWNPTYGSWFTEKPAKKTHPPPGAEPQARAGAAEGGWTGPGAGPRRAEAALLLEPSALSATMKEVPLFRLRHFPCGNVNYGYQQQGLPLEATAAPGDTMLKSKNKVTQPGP

Test [1] addresses T1, Recombinant mouse RNase1 protein (cat. no. abx068908, Abbexa) (mouse) (UniProt P00683).
T1 sequence: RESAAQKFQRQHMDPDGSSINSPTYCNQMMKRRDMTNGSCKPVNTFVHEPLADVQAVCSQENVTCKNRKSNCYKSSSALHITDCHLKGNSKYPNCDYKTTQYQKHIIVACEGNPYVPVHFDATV
In words: pull-down; lysates (RIPA buffer) of BMDM or RAW264.7 cells incubated with or without recombinant mouse RNase1 at 4 °C for 4 h, then with GST fusion protein-binding magnetic beads at 4 °C for 8 h; washed with RIPA buffer; Western blot; only the target purified. For orientation: Immunoblotting shows a protein as a band on a membrane.

Test [2] deals with Anaplastic lymphoma kinase (ALK), endogenous in mouse macrophages (mouse (endogenous in BMDMs and Raw264.7)) (UniProt P97793). In words: proximity ligation; Duolink In Situ Red; Raw264.7 sgCtrl or sgAlk cells treated with or without RNase1 (1 μg/ml) for 15 min, fixed, permeabilised, anti-ALK and anti-RNase1 antibodies; only the binder purified.

Results are given in words; binding and its absence hold for the method and conditions named. Binding seen in cells or lysates may run through a third protein. Some binding calls cover weakened binding; strength is not graded here.

“Anaplastic lymphoma kinase (ALK), endogenous in mouse macrophages (from UniProt P97793 19-1621) (receptor)”: in test [1], the binding entry is listed as “binds”.

B1: Recombinant RNase1 protein added to cells (1 μg/ml) (ligand, UniProt P00683 26-149)
chain: T1 sequence
B1: the binding entry in test [2] was “binds”.
